Source: patent US12144864B2 (Regeneron Pharmaceuticals, Inc., priority 2018, dated 2024)

Assay: peptide synthesis
[1] = conjugation step, HPLC-MS, Agilent 1200 HPLC/6100 SQ, C18 columns, DAD (214 nm and 254 nm), ELSD
[2] = whole synthesis, HPLC-MS, Agilent 1200 HPLC/6100 SQ, C18 columns, DAD (214 nm and 254 nm), ELSD

Substance	final HPLC purity [1]	conjugation yield (conjugation step)	other results
(4S)-4-({2-[(1R,3R)-1-(Acetyloxy)-4-methyl-3-[(2S,3S)-3-methyl-2-{[(2R)-1-methylpiperidin-2-yl]formamido}-N-(pent-4-yn-1-yloxy)pentanamido]pentyl]-1,3-thiazol-4-yl}formamido)-5-{4-[({[3-({2-[2-(cyclooct-2-yn-1-yloxy)acetamido]ethyl}carbamoyl)-4-{[(2S,3R,4S,5S,6R)-3,4,5-trihydroxy-6-(hydroxymethyl)oxan-2-yl]oxy}phenyl]methoxy}carbonyl)amino]phenyl}-2,2-dimethylpentanoic acid	>95%	–	step yield (coupling step): 29%
(4S)-4-({2-[(1R,3R)-1-(Acetyloxy)-4-methyl-3-[(2S,3S)-3-methyl-2-{[(2R)-1-methylpiperidin-2-yl]formamido}-N-(pentyloxy)pentanamido]pentyl]-1,3-thiazol-4-yl}formamido)-5-(4-aminophenyl)-2,2-dimethylpentanoic acid	–	–	step yield (coupling step): 30%; final HPLC purity (coupling step, Method B): 95%; final HPLC purity [2]: >99%
(4S)-4-({2-[(1R,3R)-1-(Acetyloxy)-4-methyl-3-[(2S,3S)-3-methyl-2-{[(2R)-1-methylpiperidin-2-yl]formamido}-N-(pentyloxy)pentanamido]pentyl]-1,3-thiazol-4-yl}formamido)-5-(4-{2-[2-(2-{2-[2-(cyclooct-2-yn-1-yloxy)acetamido]acetamido}acetamido)acetamido]acetamido}phenyl)-2,2-dimethylpentanoic acid	>99%	69%	–
(4S)-4-({2-[(1R,3R)-1-(Acetyloxy)-4-methyl-3-[(2S,3S)-3-methyl-2-{[(2R)-1-methylpiperidin-2-yl]formamido}-N-(pentyloxy)pentanamido]pentyl]-1,3-thiazol-4-yl}formamido)-5-[4-(2-aminoacetamido)phenyl]-2,2-dimethylpentanoic acid	–	–	step yield (coupling step): 69%
(4S)-4-({2-[(1R,3R)-1-(Acetyloxy)-4-methyl-3-[(2S,3S)-3-methyl-2-{[(2R)-1-methylpiperidin-2-yl]formamido}-N-(pentyloxy)pentanamido]pentyl]-1,3-thiazol-4-yl}formamido)-5-[4-(2-{2-[2-(2-aminoacetamido)acetamido]acetamido}acetamido)phenyl]	–	–	step yield (coupling step): 47%
(4S)-4-({2-[(1R,3R)-1-(Acetyloxy)-4-methyl-3-[(2S,3S)-3-methyl-2-{[(2R)-1-methylpiperidin-2-yl]formamido}-N-(pentyloxy)pentanamido]pentyl]-1,3-thiazol-4-yl}formamido)-5-{4-[(2S)-2-[(2S)-2-[1-(4-{2-azatricyclo[10.4.0.04,^9]hexadeca-1(12),4(9),5,7,13,15-hexaen-10-yn-2-yl}-4-oxobutanamido)-3,6,9,12-tetraoxapentadecan-15-amido]-3-methylbutanamido]-5-(carbamoylamino)pentanamido]phenyl}-2,2-dimethylpentanoic acid	100%	67%	–
(4S)-4-({2-[(1R,3R)-1-(acetyloxy)-3-[(2S,3S)—N-(hex-5-yn-1-yl)-3-methyl-2-{[(2R)-1-methylpiperidin-2-yl]formamido}pentanamido]-4-methylpentyl]-1,3-thiazol-4-yl}formamido)-5-(4-{[({4-[(2S)-2-[(2S)-2-[1-(4-{2-azatricyclo[10.4.0.04,9]hexadeca-1(12),4(9),5,7,13,15-hexaen-10-yn-2-yl}-4-oxobutanamido)-3,6,9,12-tetraoxapentadecan-15-amido]-3-methylbutanamido]-2-[2-(carbamoylamino)ethoxy]acetamido]phenyl}methoxy)carbonyl]amino}phenyl)-2,2-dimethylpentanoic acid	90%	–	–
(4S)-4-({2-[(1R,3R)-1-(acetyloxy)-3-[(2S,3S)—N-(hex-5-yn-1-yl)-3-methyl-2-{[(2R)-1-methylpiperidin-2-yl]formamido}pentanamido]-4-methylpentyl]-1,3-thiazol-4-yl}formamido)-5-(4-{[({4-[(2S)-2-[(2S)-2-[1-(4-{2-azatricyclo[10.4.0.04,9]hexadeca-1(12),4(9),5,7,13,15-hexaen-10-yn-2-yl}-4-oxobutanamido)-3,6,9,12-tetraoxapentadecan-15-amido]-3-methylbutanamido]-5-(carbamoylamino)pentanamido]phenyl}methoxy)carbonyl]amino}phenyl)-2,2-dimethylpentanoic acid	95%	35%	–
(4S)-4-({2-[(1R,3R)-1-(acetyloxy)-3-[(2S,3S)—N-(hex-5-yn-1-yl)-3-methyl-2-{[(2R)-1-methylpiperidin-2-yl]formamido}pentanamido]-4-methylpentyl]-1,3-thiazol-4-yl}formamido)-5-{4-[(2S)-2-[(2S)-2-[1-(4-{2-azatricyclo[10.4.0.04,^9]hexadeca-1(12),4(9),5,7,13,15-hexaen-10-yn-2-yl}-4-oxobutanamido)-3,6,9,12-tetraoxapentadecan-15-amido]-3-methylbutanamido]propanamido]phenyl}-2,2-dimethylpentanoic acid	100%	39%	–
(4S)-4-({2-[(1R,3R)-1-(acetyloxy)-4-methyl-3-[(2S,3S)-3-methyl-2-{[(2R)-1-methylpiperidin-2-yl]formamido}-N-(pentyloxy)pentanamido]pentyl]-1,3-thiazol-4-yl}formamido)-5-(4-{2-[(2S)-2-{2-[2-(4-{2-azatricyclo[10.4.0.04,^9]hexadeca-1(12),4(9),5,7,13,15-hexaen-10-yn-2-yl}-4-oxobutanamido)acetamido]acetamido}-3-phenylpropanamido]acetamido}phenyl)-2,2-dimethylpentanoic acid	>99%	80%	–
(4S)-5-(4-Acetamidophenyl)-4-({2-[(1R,3R)-1-[(ethylcarbamoyl)oxy]-4-methyl-3-[(2S,3S)-3-methyl-2-{[(2R)-1-methylpiperidin-2-yl]formamido}-N-(pent-4-yn-1-yloxy)pentanamido]pentyl]-1,3-thiazol-4-yl}formamido)-2,2-dimethylpentanoic acid	–	–	step yield (late stage modification step): 28%; final HPLC purity (late stage modification step, method B): 100%
(4S)-5-(4-Aminophenyl)-4-({2-[(1R,3R)-1-[(ethylcarbamoyl)oxy]-4-methyl-3-[(2S,3S)-3-methyl-2-{[(2R)-1-methylpiperidin-2-yl]formamido}-N-(pent-4-yn-1-yloxy)pentanamido]pentyl]-1,3-thiazol-4-yl}formamido)-2,2-dimethylpentanoic acid	–	–	step yield (coupling step, in 3 steps): 27%; final HPLC purity (whole synthesis, method B): >99%
(4S)-5-(4-{[({4-[(2S)-2-[(2S)-2-[1-(4-{2-Azatricyclo[10.4.0.04,9]hexadeca-1(12),4(9),5,7,13,15-hexaen-10-yn-2-yl}-4-oxobutanamido)-3,6,9,12-tetraoxapentadecan-15-amido]-3-methylbutanamido]-5-(carbamoylamino)pentanamido]phenyl}methoxy)carbonyl]amino}phenyl)-2,2-dimethyl-4-({2-[(1R,3R)-4-methyl-3-[(2S,3S)-3-methyl-2-{[(2R)-1-methylpiperidin-2-yl]formamido}-N-(pentyloxy)pentanamido]-1-[(methylcarbamoyl)oxy]pentyl]-1,3-thiazol-4-yl}formamido)pentanoic acid	99%	80%	–
(4S)-5-{4-[(2S)-2-[(2S)-2-[1-(4-{2-Azatricyclo[10.4.0.0^4,9]hexadeca-1(12),4(9),5,7,13,15-hexaen-10-yn-2-yl}-4-oxobutanamido)-3,6,9,12-tetraoxapentadecan-15-amido]-3-methylbutanamido]-5-(carbamoylamino)pentanamido]phenyl}-2,2-dimethyl-4-({2-[(1R,3R)-4-methyl-3-[(2S,3S)-3-methyl-2-{[(2R)-1-methylpiperidin-2-yl]formamido}-N-(pentyloxy)pentanamido]-1-[(methylcarbamoyl)oxy]pentyl]-1,3-thiazol-4-yl}formamido)pentanoic acid	>99%	52%	–
(4S)-5-{4-[(2S)-2-[(2S)-2-[1-(4-{2-Azatricyclo[10.4.0.0^4,9]hexadeca-1(12),4(9),5,7,13,15-hexaen-10-yn-2-yl}-4-oxobutanamido)-3,6,9,12-tetraoxapentadecan-15-amido]-3-methylbutanamido]propanamido]-3-fluorophenyl}-4-({2-[(1R,3R)-3-[(2S,3S)—N-hexyl-3-methyl-2-{[(2R)-1-methylpiperidin-2-yl]formamido}pentanamido]-4-methyl-1-[(methylcarbamoyl)oxy]pentyl]-1,3-thiazol-4-yl}formamido)-2,2-dimethylpentanoic acid	>99%	65%	–
(S)-4-(2-((1R,3R)-1-Acetoxy-3-((2S,3S)—N-(4-(1-(3-carboxypropyl)-1H-1,2,3-triazol-4-yl)butyl)-3-methyl-2-((R)-1-methylpiperidine-2-carboxamido)pentanamido)-4-methylpentyl)thiazole-4-carboxamido)-5-(4-aminophenyl)-2,2-dimethylpentanoic acid	–	–	step yield (late stage modification step, 2 steps): 11% yield in 2 steps; final HPLC purity [2]: 95.6%
(S)-4-(2-((1R,3R)-1-Acetoxy-3-((2S,3S)—N-(4-(1-benzyl-1H-1,2,3-triazol-4-yl)butyl)-3-methyl-2-((R)-1-methylpiperidine-2-carboxamido)pentanamido)-4-methylpentyl)thiazole-4-carboxamido)-5-(4-aminophenyl)-2,2-dimethylpentanoic acid	–	–	step yield (late stage modification step): 50% yield; final HPLC purity [2]: 100%
(S)-4-(2-((1R,3R)-1-Acetoxy-3-((2S,3S)—N-(hex-5-yn-1-yl)-3-methyl-2-((R)-1-methylpiperidine-2-carboxamido)pentanamido)-4-methylpentyl)thiazole-4-carboxamido)-5-(4-aminophenyl-3,5-d2)-2,2-dimethylpentanoic acid	–	–	step yield (coupling step): 34%; final HPLC purity [2]: 98.9%
